Reference: patent publication US10023555B2, “NSAIDs derivatives and uses thereof” (Research Foundation of The City University of New York, priority 2013, dated 2018)

What was measured:
Type in all cases: cell-based
[1] = test system: HCT-15 human colon adenocarcinoma cells; assay: MTT cell growth inhibition, HCT 15; details: 24 h, Colon HCT 15, mean ± SEM of three determinations
[2] = test system: SW-480 human colon adenocarcinoma cells; assay: MTT cell growth inhibition, SW480; details: 24 h, mean ± SEM of three determinations
[3] = test system: HT-29 human colon adenocarcinoma cells; assay: MTT cell growth inhibition, HT-29; details: 24 h, Colon HT-29, mean ± SEM of three determinations

COc1ccc2cc([C@H](C)C(=O)O)ccc2c1 [NAP, naproxen, reference compound]
IC50 [1]: 2950 µM
IC50 [2]: 3110 µM
IC50 [3]: 2800 µM
